These are yes or no findings as the source states them, for the method shown. A result given as binding can be weak or reduced; the word gives no strength.
Tests used:
[1] = target: human plasma fibronectin (human); experiment: ELISA; antibody displacement assay; plates coated with 10 µg/mL fibronectin, blocked with 5% human plasma; 1.5 µg/mL his-tagged prodomain alone or with antibodies (mouse IgG1, human IgG4 isotype controls, 10A10, HC5LC4), 1 h at room temperature; detected with biotinylated α-His antibody and streptavidin HRP; both purified
[2] = target: human plasma fibronectin (human); experiment: ELISA; solid phase enzyme immunoassay; medium binding plates coated with 10 µg/mL fibronectin, type I or type III collagen overnight at room temperature in PBS, blocked with 1% BSA; His tagged rPro in serial dilution starting at 10 µg/mL, 1 h at room temperature; detected with biotinylated α-His antibody and streptavidin HRP; both purified

- binding [1]: binds
- binding [2]: binds
B1: Recombinant prodomain (rPro) of N-cadherin, amino acids 26-159 (domain or fragment, UniProt P19022 26-159)
chain: SGEIALCKTGFPEDVYSAVLSKDVHEGQPLLNVKFSNCNGKRKVQYESSEPADFKVDEDGMVYAVRSFPLSSEHAKFLIYAQDKETQEKWQVAVKLSLKPTLTEESVKESAEVEEIVFPRQFSKHSGHLQRQKR
